Values from PubChem BioAssay AID1259254 (NCATS, 2017).
Screen: 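Gene knock-downs that lead to re-replication, shown by excess G2 DNA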 (primary screen). Cell system: human HCT116 colorectal cancer cells. Knock-down reagent: single siRNA against human genes. Time to read-out: 3 days. Read-out: 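Nuclei stained with Hoechst and imaged; cell-cycle phase assigned by DNA content; G2 share scaled per plate, non-targeting siRNA 0%, GMNN siRNA 100%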. Direction: G2 robust z-score and G2 cells, % of GMNN control: higher = more G2 cells, more excess DNA replication; raw share of cells in G2: higher = larger share of cells with G2 DNA content. Rule for the call: 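An siRNA counts as active if its G2 robust z-score lies at least 5 MADs above the screen median; here such calls match roughly 38% of GMNN control or more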.
Here is a random part of about 59,000 reagents tested. About 1,550 of all reagents (2.6%) were called active. 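G2 share is only a proxy for re-replication; each gene was hit by three separate siRNAs, and active genes were retested.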 The raw values are shown without normalisation. Reagents against one gene are numbered here. The record does not give: the amount of reagent.

gene knocked down,reagent no.,G2 robust z-score,"G2 cells, % of GMNN control",raw share of cells in G2 (%),outcome
SRSF4,1,0.765,8.35,6.72,inactive
SRSF4,2,-1.47,-7.38,3.2,inactive
SRSF4,3,-1.1,-4.74,2.92,inactive
RANGRF,1,-0.548,-0.886,4.21,inactive
RANGRF,2,0.0773,3.51,4.36,inactive
RANGRF,3,-0.582,-1.13,3.42,inactive
NPC1L1,1,1.57,14,9.21,inactive
NPC1L1,2,-0.834,-2.9,3.45,inactive
NPC1L1,3,-0.257,1.16,3.62,inactive
ACVR1C,1,-0.49,-0.48,5.44,inactive
ACVR1C,2,-1.1,-4.78,3.45,inactive
ACVR1C,3,0.0361,3.22,4.71,inactive
HMOX2,1,-0.446,-0.173,4.98,inactive
HMOX2,2,-0.0319,2.74,6.73,inactive
HMOX2,3,-0.61,-1.32,3.72,inactive
MKRN2,1,-1.53,-7.78,2.63,inactive
MKRN2,2,-0.739,-2.23,3.45,inactive
MKRN2,3,0.00144,2.98,4.96,inactive
RPL41,1,4.81,36.8,20.6,inactive
RPL41,2,5,38.1,19.3,inactive
RPL41,3,1.29,12.1,7.71,inactive
TNFRSF12A,1,0.178,4.22,5.11,inactive
TNFRSF12A,2,0.243,4.67,6.24,inactive
TNFRSF12A,3,3.7,29,12.8,inactive
CPAP,1,1.94,16.6,10.9,inactive
CPAP,2,2.2,18.4,11.8,inactive
CPAP,3,0.0242,3.14,4.14,inactive
FUT2,1,1.27,11.9,9.55,inactive
FUT2,2,0.762,8.33,8.43,inactive
FUT2,3,-0.595,-1.22,3.22,inactive

No new results follow: entries from further up.
gene knocked down,reagent no.,G2 robust z-score,"G2 cells, % of GMNN control",raw share of cells in G2 (%),outcome
RPL41,2,5,38.1,19.3,inactive
RPL41,3,1.29,12.1,7.71,inactive
TNFRSF12A,1,0.178,4.22,5.11,inactive
